This is one part of the list.

Sequences of proteins named here, by UniProt entry; tags and fusion partners are left off. A change or cut given only in a name is not applied to a line headed by its entry.
UniProt P06730, whole entry, looked up: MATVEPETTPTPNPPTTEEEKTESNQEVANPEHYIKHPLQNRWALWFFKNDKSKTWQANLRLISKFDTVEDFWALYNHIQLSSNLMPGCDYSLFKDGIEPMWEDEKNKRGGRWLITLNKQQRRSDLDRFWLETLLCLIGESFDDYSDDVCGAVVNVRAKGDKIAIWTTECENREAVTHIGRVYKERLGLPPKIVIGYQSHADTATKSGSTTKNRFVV
UniProt Q13347, whole entry, looked up: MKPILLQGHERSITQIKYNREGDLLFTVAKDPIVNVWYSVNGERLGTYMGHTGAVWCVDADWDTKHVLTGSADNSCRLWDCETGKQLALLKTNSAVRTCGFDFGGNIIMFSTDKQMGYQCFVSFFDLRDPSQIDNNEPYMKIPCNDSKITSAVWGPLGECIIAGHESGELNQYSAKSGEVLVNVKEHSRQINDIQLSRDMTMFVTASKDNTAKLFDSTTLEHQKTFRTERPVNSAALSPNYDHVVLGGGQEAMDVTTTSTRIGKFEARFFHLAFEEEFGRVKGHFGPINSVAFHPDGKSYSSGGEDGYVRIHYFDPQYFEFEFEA
UniProt O00303, whole entry, looked up: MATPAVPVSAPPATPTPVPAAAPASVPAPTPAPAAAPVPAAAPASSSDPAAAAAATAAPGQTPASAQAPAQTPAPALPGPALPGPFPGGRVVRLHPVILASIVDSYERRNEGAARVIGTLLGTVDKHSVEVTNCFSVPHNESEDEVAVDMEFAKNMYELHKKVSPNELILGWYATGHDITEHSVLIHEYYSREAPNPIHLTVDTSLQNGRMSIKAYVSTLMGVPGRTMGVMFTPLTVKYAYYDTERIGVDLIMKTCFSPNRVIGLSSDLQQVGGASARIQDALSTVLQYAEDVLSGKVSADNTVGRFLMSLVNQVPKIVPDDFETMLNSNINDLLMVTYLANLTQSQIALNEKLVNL
UniProt P41567, whole entry, looked up: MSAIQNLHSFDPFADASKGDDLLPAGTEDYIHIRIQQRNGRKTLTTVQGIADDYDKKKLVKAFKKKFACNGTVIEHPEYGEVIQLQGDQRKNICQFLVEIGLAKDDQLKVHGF
UniProt Q14249: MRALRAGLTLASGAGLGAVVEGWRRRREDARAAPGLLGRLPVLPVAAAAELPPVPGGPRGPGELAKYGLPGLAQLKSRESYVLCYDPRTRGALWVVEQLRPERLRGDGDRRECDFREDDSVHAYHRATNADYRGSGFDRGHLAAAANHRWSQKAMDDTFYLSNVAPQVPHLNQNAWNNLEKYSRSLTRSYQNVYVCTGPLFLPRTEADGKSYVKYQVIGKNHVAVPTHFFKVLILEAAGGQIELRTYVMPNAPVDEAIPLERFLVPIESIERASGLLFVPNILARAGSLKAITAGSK
UniProt Q04637, whole entry, looked up: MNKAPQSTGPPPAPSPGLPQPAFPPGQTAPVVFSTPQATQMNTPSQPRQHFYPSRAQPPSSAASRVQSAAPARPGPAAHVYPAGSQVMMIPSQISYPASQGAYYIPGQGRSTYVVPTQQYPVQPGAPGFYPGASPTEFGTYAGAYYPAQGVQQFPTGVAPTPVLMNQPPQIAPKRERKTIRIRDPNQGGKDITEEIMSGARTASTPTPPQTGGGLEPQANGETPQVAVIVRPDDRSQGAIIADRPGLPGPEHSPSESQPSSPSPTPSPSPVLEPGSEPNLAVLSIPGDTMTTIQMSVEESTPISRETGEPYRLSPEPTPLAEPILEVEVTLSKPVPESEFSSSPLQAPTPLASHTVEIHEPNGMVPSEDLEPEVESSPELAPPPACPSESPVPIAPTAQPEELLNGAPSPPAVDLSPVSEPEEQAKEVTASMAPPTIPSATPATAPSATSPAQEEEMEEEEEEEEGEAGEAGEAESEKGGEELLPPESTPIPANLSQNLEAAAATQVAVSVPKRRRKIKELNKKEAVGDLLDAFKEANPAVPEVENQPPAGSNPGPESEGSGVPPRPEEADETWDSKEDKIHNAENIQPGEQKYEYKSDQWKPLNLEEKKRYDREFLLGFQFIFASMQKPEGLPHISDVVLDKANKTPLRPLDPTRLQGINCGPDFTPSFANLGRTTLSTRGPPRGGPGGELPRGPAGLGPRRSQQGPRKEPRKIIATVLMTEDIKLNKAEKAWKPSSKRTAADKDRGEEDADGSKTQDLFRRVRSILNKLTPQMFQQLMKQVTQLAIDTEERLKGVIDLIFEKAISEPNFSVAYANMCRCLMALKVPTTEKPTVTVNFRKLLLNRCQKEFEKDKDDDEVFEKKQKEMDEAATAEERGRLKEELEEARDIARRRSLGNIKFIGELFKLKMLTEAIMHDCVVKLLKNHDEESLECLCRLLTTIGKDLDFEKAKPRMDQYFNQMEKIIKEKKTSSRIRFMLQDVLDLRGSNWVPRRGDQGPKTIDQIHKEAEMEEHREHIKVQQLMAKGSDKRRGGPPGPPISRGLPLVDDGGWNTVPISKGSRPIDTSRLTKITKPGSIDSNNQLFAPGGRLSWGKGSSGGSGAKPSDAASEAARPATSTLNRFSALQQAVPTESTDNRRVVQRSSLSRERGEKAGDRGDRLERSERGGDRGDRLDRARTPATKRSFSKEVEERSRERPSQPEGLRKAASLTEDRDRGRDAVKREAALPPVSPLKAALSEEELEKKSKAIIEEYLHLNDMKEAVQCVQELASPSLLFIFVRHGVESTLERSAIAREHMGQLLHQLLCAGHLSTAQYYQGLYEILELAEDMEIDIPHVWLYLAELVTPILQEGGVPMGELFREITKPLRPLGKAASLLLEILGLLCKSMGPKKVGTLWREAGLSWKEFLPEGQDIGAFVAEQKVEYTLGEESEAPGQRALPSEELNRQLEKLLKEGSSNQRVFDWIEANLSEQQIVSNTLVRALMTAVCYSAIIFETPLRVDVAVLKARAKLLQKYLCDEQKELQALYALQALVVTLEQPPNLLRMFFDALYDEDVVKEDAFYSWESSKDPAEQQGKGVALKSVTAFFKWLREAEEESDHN
UniProt P60842, whole entry, looked up: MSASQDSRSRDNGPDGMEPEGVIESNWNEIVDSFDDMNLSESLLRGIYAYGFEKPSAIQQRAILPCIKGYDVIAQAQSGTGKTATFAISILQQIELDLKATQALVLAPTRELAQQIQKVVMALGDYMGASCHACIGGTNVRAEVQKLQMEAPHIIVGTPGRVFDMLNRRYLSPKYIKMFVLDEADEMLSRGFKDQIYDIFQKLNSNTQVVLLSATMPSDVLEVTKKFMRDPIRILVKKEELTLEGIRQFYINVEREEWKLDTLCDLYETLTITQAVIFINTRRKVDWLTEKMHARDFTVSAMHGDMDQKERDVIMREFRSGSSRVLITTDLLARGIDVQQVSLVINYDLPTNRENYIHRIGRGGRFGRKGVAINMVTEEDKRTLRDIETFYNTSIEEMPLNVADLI
UniProt Q9H223: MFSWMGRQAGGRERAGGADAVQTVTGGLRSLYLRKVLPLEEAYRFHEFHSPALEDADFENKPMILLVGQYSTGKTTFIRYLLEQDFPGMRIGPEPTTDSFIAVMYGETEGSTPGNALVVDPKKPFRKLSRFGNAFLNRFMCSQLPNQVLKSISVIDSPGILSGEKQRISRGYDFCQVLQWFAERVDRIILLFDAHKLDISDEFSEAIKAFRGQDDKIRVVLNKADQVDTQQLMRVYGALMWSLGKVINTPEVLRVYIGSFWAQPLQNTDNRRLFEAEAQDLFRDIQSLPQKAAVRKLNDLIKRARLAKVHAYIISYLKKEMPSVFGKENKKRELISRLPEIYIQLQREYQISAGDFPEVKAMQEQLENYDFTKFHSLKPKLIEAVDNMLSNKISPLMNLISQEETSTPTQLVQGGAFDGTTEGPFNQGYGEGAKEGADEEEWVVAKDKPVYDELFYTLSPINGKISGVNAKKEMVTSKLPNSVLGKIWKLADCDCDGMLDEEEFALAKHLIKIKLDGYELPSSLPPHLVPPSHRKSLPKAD
UniProt O75822, whole entry, looked up: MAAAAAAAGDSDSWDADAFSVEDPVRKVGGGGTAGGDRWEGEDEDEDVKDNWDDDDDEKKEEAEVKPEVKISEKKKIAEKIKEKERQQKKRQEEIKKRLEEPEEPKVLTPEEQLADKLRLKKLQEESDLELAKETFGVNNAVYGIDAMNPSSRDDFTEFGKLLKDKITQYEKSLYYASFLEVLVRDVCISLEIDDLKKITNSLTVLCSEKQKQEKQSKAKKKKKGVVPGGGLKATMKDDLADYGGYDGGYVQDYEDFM
UniProt Q7Z2Z2: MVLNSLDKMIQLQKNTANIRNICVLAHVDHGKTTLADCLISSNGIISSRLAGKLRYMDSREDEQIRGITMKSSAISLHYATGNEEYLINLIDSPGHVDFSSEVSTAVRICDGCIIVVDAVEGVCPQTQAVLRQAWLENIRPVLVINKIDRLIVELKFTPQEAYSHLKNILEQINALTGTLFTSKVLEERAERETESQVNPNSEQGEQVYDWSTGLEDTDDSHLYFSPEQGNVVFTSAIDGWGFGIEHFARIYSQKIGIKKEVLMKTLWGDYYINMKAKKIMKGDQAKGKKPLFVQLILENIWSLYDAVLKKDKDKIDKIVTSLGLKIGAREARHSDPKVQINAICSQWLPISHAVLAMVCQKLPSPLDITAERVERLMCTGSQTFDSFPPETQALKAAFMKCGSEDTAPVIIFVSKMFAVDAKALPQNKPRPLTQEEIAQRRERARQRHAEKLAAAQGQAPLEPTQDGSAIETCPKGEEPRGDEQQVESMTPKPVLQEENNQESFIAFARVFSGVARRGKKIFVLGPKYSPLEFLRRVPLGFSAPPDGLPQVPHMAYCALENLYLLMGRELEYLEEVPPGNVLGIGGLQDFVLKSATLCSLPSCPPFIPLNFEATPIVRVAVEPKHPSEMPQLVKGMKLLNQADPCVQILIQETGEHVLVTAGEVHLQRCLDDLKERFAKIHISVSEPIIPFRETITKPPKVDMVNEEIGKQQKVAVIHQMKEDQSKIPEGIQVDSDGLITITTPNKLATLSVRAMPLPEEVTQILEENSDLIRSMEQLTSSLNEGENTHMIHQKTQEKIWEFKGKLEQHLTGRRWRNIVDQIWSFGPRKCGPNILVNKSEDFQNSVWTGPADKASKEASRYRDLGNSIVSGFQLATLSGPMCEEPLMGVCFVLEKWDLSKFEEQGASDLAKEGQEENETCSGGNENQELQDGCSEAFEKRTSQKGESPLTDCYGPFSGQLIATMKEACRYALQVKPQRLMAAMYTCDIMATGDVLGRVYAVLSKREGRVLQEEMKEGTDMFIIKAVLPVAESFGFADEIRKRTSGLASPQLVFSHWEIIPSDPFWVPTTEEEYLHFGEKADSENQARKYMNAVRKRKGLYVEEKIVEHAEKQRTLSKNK
UniProt O95163: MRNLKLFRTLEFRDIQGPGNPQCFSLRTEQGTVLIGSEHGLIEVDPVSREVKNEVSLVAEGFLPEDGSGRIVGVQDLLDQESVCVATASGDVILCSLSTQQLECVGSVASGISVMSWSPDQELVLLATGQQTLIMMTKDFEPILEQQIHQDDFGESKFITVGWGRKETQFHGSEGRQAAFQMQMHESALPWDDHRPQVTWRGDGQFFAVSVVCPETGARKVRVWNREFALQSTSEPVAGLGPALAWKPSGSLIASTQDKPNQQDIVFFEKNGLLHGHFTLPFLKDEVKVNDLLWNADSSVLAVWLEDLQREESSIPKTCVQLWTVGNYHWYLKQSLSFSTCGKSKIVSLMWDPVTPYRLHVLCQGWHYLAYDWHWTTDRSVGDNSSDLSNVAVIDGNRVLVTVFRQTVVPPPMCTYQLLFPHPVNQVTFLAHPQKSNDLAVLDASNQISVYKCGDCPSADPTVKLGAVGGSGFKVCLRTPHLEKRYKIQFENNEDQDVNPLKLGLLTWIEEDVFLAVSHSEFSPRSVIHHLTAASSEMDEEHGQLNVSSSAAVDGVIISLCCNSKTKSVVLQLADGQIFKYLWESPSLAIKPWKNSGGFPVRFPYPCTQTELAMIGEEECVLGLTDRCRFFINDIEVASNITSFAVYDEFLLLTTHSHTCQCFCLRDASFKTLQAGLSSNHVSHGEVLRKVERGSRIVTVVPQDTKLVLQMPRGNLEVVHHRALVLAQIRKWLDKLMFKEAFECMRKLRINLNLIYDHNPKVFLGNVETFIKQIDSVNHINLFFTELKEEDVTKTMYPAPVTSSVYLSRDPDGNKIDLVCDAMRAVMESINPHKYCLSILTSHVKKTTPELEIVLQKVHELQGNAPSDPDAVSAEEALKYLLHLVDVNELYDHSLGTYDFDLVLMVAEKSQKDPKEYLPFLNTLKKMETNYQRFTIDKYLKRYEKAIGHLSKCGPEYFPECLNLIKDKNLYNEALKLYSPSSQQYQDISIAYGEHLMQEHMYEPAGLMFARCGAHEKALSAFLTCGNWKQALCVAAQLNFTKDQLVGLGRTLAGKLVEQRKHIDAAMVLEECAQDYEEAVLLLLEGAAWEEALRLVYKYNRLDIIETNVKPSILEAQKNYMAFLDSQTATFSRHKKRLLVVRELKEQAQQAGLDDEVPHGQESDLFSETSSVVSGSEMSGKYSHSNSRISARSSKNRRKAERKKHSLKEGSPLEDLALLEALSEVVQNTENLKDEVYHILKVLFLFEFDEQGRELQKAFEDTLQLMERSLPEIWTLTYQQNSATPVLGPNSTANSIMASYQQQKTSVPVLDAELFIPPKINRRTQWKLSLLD

Compound in one assay: Nc1ccccc1NC(=O)c1ccc(CNC(=O)OCc2cccnc2)cc1 [entinostat]
Nature of the assay: log2 fold change, soluble protein after heating vs DMSO (PISA); higher = thermal stabilisation; K562 cells, 10 uM, 30 min; active = over 0.2 and 3.5 SD of the protein, either way, in both replicates (recomputed). In a few lines: (§1)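 K562 cells at 2×10^6 cells/mL were given 10 μM compound for 30 min. Aliquots then went through 3 min of heating across 48°C-58°C, were pooled, and were extracted in PBS with 0.5% NP-40 at 4°C, and the supernatant after 21,000xg for 90 min was quantified by TMTpro 16plex LC-MS/MS with channel sums equalised. Thermal stability relative to control samples, from duplicates, is given as log2 fold change.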
EIF4E isoform 2 (UniProt P06730): the log2 fold change is inactive: -0.073.

For EIF3I (UniProt Q13347), the log2 fold change is inactive: 0.056.

On to EED, A0A5F9ZI63, for which the log2 fold change is inactive: -0.039.

EIF3F (UniProt O00303): the log2 fold change was inactive: 0.034.

In the case of EIF1 (UniProt P41567), the log2 fold change is inactive: -0.002.

For ENDOG (UniProt Q14249), the log2 fold change is inactive: -0.012.

Regarding EIF4G1 isoform 8 (UniProt Q04637), the log2 fold change was inactive: 0.185.

EIF4A1 (UniProt P60842): the log2 fold change was inactive: 0.079.

Regarding EHD4 (UniProt Q9H223), the log2 fold change is inactive: 0.002.

On to EIF3J (UniProt O75822), for which the log2 fold change is inactive: 0.012.

Compound in another assay: O=C(CCCCCCC(=O)Nc1ccccc1)NO [vorinostat]
The assay is described as above. The method, boiled down: as §1
Take ELOVL1 (UniProt Q9BW60): the log2 fold change is inactive: 0.321.

With EGLN1 (UniProt Q9GZT9), the log2 fold change is inactive: 0.021.

With EIF5 (UniProt P55010), the log2 fold change is inactive: 0.001.

EIF2B1 (UniProt Q14232): the log2 fold change is inactive: 0.012.

Turning to EHBP1L1 (UniProt Q8N3D4), the log2 fold change was inactive: 0.054.

Turning to EOGT (UniProt Q5NDL2), the log2 fold change is inactive: -0.092.

As to EHD2 (UniProt Q9NZN4), the log2 fold change is inactive: 0.055.

Consider EMC8 (UniProt O43402), for which the log2 fold change was inactive: -0.01.

EIF4H (UniProt Q15056): the log2 fold change was inactive: 0.006.

In the case of EIF2S3 (UniProt P41091), the log2 fold change is inactive: 0.

Regarding EIF5B (UniProt O60841), the log2 fold change was inactive: 0.037.

For ELOC (UniProt Q15369), the log2 fold change was inactive: 0.024.

Consider EFHD2 (UniProt Q96C19), for which the log2 fold change is inactive: 0.021.

EFCAB14 (UniProt O75071): the log2 fold change was inactive: -0.057.

As to EEF1B2 (UniProt P24534), the log2 fold change is inactive: 0.02.

As for EFL1 (UniProt Q7Z2Z2), the log2 fold change is inactive: 0.071.

In the case of EIF1AD (UniProt Q8N9N8), the log2 fold change is inactive: -0.055.

Consider EMD (UniProt P50402), for which the log2 fold change was inactive: -0.017.

ELP1 (UniProt O95163): the log2 fold change is inactive: 0.013.

Take ELOVL5 isoform 2 (UniProt Q9NYP7): the log2 fold change is inactive: 0.062.

As for EEF1AKNMT (UniProt Q8N6R0), the log2 fold change is inactive: 0.161.

Consider EEF1D isoform 2 (UniProt P29692), for which the log2 fold change was inactive: -0.02.

In the case of EEF1G isoform 2 (UniProt P26641), the log2 fold change is inactive: 0.059.

As to EIF4E isoform 2 (UniProt P06730), the log2 fold change was inactive: -0.01.

With EIF3I (UniProt Q13347), the log2 fold change was inactive: 0.044.

Turning to EED, A0A5F9ZI63, the log2 fold change is inactive: 0.021.

In the case of EIF3F (UniProt O00303), the log2 fold change is inactive: 0.028.

Take EIF1 (UniProt P41567): the log2 fold change was inactive: -0.086.

On to ENDOG (UniProt Q14249), for which the log2 fold change was inactive: 0.052.

For EIF4G1 isoform 8 (UniProt Q04637), the log2 fold change was inactive: 0.116.

In the case of EIF4A1 (UniProt P60842), the log2 fold change is inactive: 0.068.

For EHD4 (UniProt Q9H223), the log2 fold change is inactive: 0.04.

On to EIF3J (UniProt O75822), for which the log2 fold change is inactive: 0.143.

Compound in a further assay: O=C(CCCCCCNC(=O)c1cnc(N(c2ccccc2)c2ccccc2Cl)nc1)NO [citarinostat]
Described as above. The method, boiled down: as §1
As for ELOVL1 (UniProt Q9BW60), the log2 fold change was inactive: -0.006.

Take EGLN1 (UniProt Q9GZT9): the log2 fold change was inactive: 0.034.

For EIF5 (UniProt P55010), the log2 fold change is inactive: -0.013.

For the target EIF2B1 (UniProt Q14232), the log2 fold change is inactive: 0.046.

As to EHBP1L1 (UniProt Q8N3D4), the log2 fold change was inactive: 0.041.

Regarding EOGT (UniProt Q5NDL2), the log2 fold change is inactive: -0.016.

As for EHD2 (UniProt Q9NZN4), the log2 fold change is inactive: 0.048.

Consider EMC8 (UniProt O43402), for which the log2 fold change was inactive: 0.035.

Take EIF4H (UniProt Q15056): the log2 fold change is inactive: -0.009.

EIF2S3 (UniProt P41091): the log2 fold change was inactive: -0.044.

As to EIF5B (UniProt O60841), the log2 fold change is inactive: 0.009.

As to ELOC (UniProt Q15369), the log2 fold change is inactive: 0.036.

Take EFHD2 (UniProt Q96C19): the log2 fold change was inactive: 0.039.

Turning to EFCAB14 (UniProt O75071), the log2 fold change was inactive: 0.181.

Regarding EEF1B2 (UniProt P24534), the log2 fold change is inactive: 0.004.

EFL1 (UniProt Q7Z2Z2): the log2 fold change is inactive: 0.047.

Consider EIF1AD (UniProt Q8N9N8), for which the log2 fold change is inactive: 0.006.

Regarding EMD (UniProt P50402), the log2 fold change is inactive: -0.076.

ELP1 (UniProt O95163): the log2 fold change was inactive: 0.014.

For the target ELOVL5 isoform 2 (UniProt Q9NYP7), the log2 fold change was inactive: 0.

In the case of EEF1AKNMT (UniProt Q8N6R0), the log2 fold change was inactive: -0.002.

In the case of EEF1D isoform 2 (UniProt P29692), the log2 fold change was inactive: 0.017.

For EEF1G isoform 2 (UniProt P26641), the log2 fold change was inactive: 0.035.

Consider EIF4E isoform 2 (UniProt P06730), for which the log2 fold change was inactive: -0.026.

For EIF3I (UniProt Q13347), the log2 fold change was inactive: 0.068.

In the case of EED, A0A5F9ZI63, the log2 fold change was inactive: 0.098.

Take EIF3F (UniProt O00303): the log2 fold change was inactive: 0.04.

As for EIF1 (UniProt P41567), the log2 fold change was inactive: -0.044.

As to ENDOG (UniProt Q14249), the log2 fold change is inactive: 0.01.

As to EIF4G1 isoform 8 (UniProt Q04637), the log2 fold change is inactive: 0.058.

Regarding EIF4A1 (UniProt P60842), the log2 fold change is inactive: 0.088.

Consider EHD4 (UniProt Q9H223), for which the log2 fold change is inactive: 0.024.

Take EIF3J (UniProt O75822): the log2 fold change is inactive: 0.001.
